Results on 1 molecule are retold here after PMC6702741.

Protein sequences, listed by entry. Tags and fused reporters are not part of them.
UniProt P51608: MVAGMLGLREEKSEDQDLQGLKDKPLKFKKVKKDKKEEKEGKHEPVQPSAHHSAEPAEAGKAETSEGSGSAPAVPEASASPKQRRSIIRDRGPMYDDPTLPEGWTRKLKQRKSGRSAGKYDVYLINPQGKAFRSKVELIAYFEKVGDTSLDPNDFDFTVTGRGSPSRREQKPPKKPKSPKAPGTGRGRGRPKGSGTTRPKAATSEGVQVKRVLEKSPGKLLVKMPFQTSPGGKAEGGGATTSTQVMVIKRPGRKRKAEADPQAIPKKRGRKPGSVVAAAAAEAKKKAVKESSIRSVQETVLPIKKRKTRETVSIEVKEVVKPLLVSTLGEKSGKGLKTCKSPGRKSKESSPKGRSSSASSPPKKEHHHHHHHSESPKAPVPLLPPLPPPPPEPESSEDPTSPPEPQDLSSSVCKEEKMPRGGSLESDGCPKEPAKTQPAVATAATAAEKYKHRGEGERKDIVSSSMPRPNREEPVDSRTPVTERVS

No constants are given. Whether binding was seen depends on the method and setting. Binding seen in cells or lysates may run through a third protein. Some results given as binding are weak or reduced against the parent protein; the word gives no strength.

For this experiment, the target named is Methyl CpG-binding protein 2 (MeCP2) (human (endogenous in glioma cells)) (UniProt P51608). As to the kind of experiment: co-IP; endogenous proteins in glioma cells; complexes precipitated with protein A/G agarose, western blot with anti-MeCP2 and anti-SUV39H1; done in both directions.

B1: suppressor of variegation 39H1 (SUV39H1) (protein, UniProt O43463 1-412)
chain: MAENLKGCSVCCKSSWNQLQDLCRLAKLSCPALGISKRNLYDFEVEYLCDYKKIREQEYYLVKWRGYPDSESTWEPRQNLKCVRILKQFHKDLERELLRRHHRSKTPRHLDPSLANYLVQKAKQRRALRRWEQELNAKRSHLGRITVENEVDLDGPPRAFVYINEYRVGEGITLNQVAVGCECQDCLWAPTGGCCPGASLHKFAYNDQGQVRLRAGLPIYECNSRCRCGYDCPNRVVQKGIRYDLCIFRTDDGRGWGVRTLEKIRKNSFVMEYVGEIITSEEAERRGQIYDRQGATYLFDLDYVEDVYTVDAAYYGNISHFVNHSCDPNLQVYNVFIDNLDERLPRIAFFATRTIRAGEELTFDYNMQVDPVDMESTRMDSNFGLAGLPGSPKKRVRIECKCGTESCRKYLF
Take B1: the binding result is given as “binds”.
